# Data published in PubChem BioAssay AID330 (DTP/NCI, 2004).
# The list is a part of this screen's results and no random one: it is rich in T/C values a quarter to a half above the control, in often repeated tests (any T/C) and in doses without a T/C. Further doses and runs are listed elsewhere. T/C is the treated group as % of the vehicle group. Some entries give survivors of the animals treated and no T/C: the source holds a T/C of zero for them, seemingly a mark for toxic or unscored doses. Some doses without a T/C left all or most animals alive at the check, yet need not have been tolerated: survival well below the control is almost never listed, so the zero probably covers shortened survival too. Counts of survivors are from the toxicity check (mostly the fifth day) where no day follows; animals may have died later. Schedule codes are those of the source, read here as Q, the interval in days (D) or hours (H), X, the number of doses. Some entries hold several experiments; their values stand side by side, smallest first. Where survival is the endpoint, the PubChem record calls one and a half times the control and up active, and a quarter to a half above the control has no call in these data; cut-offs in other NCI protocols can differ.
# System: P388 leukemia ip, CD2F1 mice, survival T/C
# Experiment: NCI In Vivo Anticancer Drug Screen. Data for tumor model P388 Leukemia (intraperitoneal) in CD2F1 (CDF1) mice
# Conditions: T/C endpoint: median survival time, higher T/C = longer survival
# [1] = dose: 200.0 mg/kg/injection, schedule: Q04DX003 (ip), vehicle: saline with Tween-80
# [2] = dose: 400.0 mg/kg/injection, schedule: Q04DX003 (ip), vehicle: saline with Tween-80
# [3] = dose: 100.0 mg/kg/injection, schedule: Q01DX009 (ip), vehicle: saline with Tween-80
# [4] = dose: 200.0 mg/kg/injection, schedule: Q01DX009 (ip), vehicle: saline with Tween-80
# [5] = dose: 200.0 mg/kg/injection, schedule: Q01DX005 (ip), vehicle: saline with Tween-80
# [6] = dose: 60.0 mg/kg/injection, schedule: Q01DX005 (ip), vehicle: saline with Tween-80
# [7] = dose: 120.0 mg/kg/injection, schedule: Q01DX005 (ip), vehicle: saline with Tween-80
# [8] = dose: 240.0 mg/kg/injection, schedule: Q01DX005 (ip), vehicle: saline with Tween-80
# [9] = dose: 50.0 mg/kg/injection, schedule: Q01DX005 (ip), vehicle: saline with Tween-80
# [10] = dose: 100.0 mg/kg/injection, schedule: Q01DX005 (ip), vehicle: saline with Tween-80
compound,measurement,setting,value
COC(C#N)c1ccccc1 (configuration not stated),T/C,"dose: 12.5 mg/kg/injection, schedule: Q04DX003 (ip), vehicle: saline with Tween-80",132 % of control
same,survivor count,"dose: 50.0 mg/kg/injection, schedule: Q04DX003 (ip), vehicle: saline with Tween-80",2 of 6
same,survivor count,"dose: 50.0 mg/kg/injection, schedule: Q04DX003 (ip), vehicle: saline",0 of 6
same,survivor count,"dose: 100.0 mg/kg/injection, schedule: Q04DX003 (ip), vehicle: saline with Tween-80",0 of 6
same,survivor count,"dose: 100.0 mg/kg/injection, schedule: Q04DX003 (ip), vehicle: saline",0 of 6
same,survivor count,[1],0 of 6
same,survivor count,"dose: 200.0 mg/kg/injection, schedule: Q04DX003 (ip), vehicle: saline",0 of 6
same,survivor count,[2],0 of 6
same,survivor count,"dose: 400.0 mg/kg/injection, schedule: Q04DX003 (ip), vehicle: saline",0 of 6
COc1ccc(CC2c3cc(OC)c(OC)cc3CCN2C)cc1OC (configuration not stated),survivor count,[3],0 of 6
same,survivor count,[4],0 of 6
N#C/C(=C1/OC(=N)C(c2c(Cl)cccc2Cl)C1=O)c1c(Cl)cccc1Cl (configuration not stated),survivor count,[5],3 of 6
CC(c1ccc(Cl)cc1)N(CCN(C)C)c1ccccn1 (configuration not stated),survivor count,"dose: 120.0 mg/kg/injection, schedule: Q01DX005 (ip), vehicle: Klucel (hydroxypropylcellulose) (HPC)",0 of 6
same,survivor count,"dose: 240.0 mg/kg/injection, schedule: Q01DX005 (ip), vehicle: Klucel (hydroxypropylcellulose) (HPC)",0 of 6
O=C(CNC(=O)Nc1ccc(Cl)c(Cl)c1)N/N=C/C=C/c1ccccc1,survivor count,[6],6 of 6
same,survivor count,[7],6 of 6
same,survivor count,[8],6 of 6
NCCNC[Si](c1ccccc1)(c1ccccc1)c1ccccc1,survivor count,[6],3 of 6 and 5 of 6
same,survivor count,[7],0 of 6
same,survivor count,[8],0 of 6
CN1Cc2cc3cc(c2O)C[N+](C)(C)Cc2c(Cl)c(c(Cl)c(c2Cl)C[N+](C)(C)C3)C1,survivor count,"dose: 100.0 mg/kg/injection, schedule: Q01DX001 (ip), vehicle: saline",0 of 6
same,survivor count,"dose: 200.0 mg/kg/injection, schedule: Q01DX001 (ip), vehicle: saline",0 of 6
same,survivor count,"dose: 400.0 mg/kg/injection, schedule: Q01DX001 (ip), vehicle: saline",0 of 6
COC(=O)C(O)(C(=O)OC)C1=C(N)C(=O)c2ccccc2C1=O,survivor count,"dose: 200.0 mg/kg/injection, schedule: Q01DX005 (ip), vehicle: saline",0 of 6
O=C(O)CC(=O)O.[NH-]C1CCCC([NH-])C1.[Pt+2] (configuration not stated),T/C,"dose: 6.25 mg/kg/injection, schedule: Q04DX002 (ip), vehicle: saline with Tween-80",147 % of control
CC1=CC(=O)C(O)C2(C)C1CC1OC(=O)C(OC3OC(CO)C(O)C(O)C3O)C3C(C)C(O)C4(O)OCC13C42 (configuration not stated),survivor count,"dose: 1.0 mg/kg/injection, schedule: Q01DX005 (ip), vehicle: water",2 of 6
same,survivor count,"dose: 2.0 mg/kg/injection, schedule: Q01DX005 (ip), vehicle: water",1 of 6
same,survivor count,"dose: 2.13 mg/kg/injection, schedule: Q01DX005 (ip), vehicle: water",0 of 6
same,survivor count,"dose: 4.25 mg/kg/injection, schedule: Q01DX005 (ip), vehicle: water",0 of 6
same,survivor count,"dose: 8.5 mg/kg/injection, schedule: Q01DX005 (ip), vehicle: water",0 of 6
same,survivor count,"dose: 17.0 mg/kg/injection, schedule: Q01DX005 (ip), vehicle: water",0 of 5
COC(=O)c1nc(NN)[nH]c(=O)c1C,survivor count,[7],2 of 6
same,survivor count,[8],0 of 6
C/C(=N\NC(=S)N1CCN(C2CCCCCC2)CC1)c1ccccn1,survivor count,"dose: 12.5 mg/kg/injection, schedule: Q01DX005 (ip), vehicle: saline with Tween-80",5 of 6
same,survivor count,"dose: 25.0 mg/kg/injection, schedule: Q01DX005 (ip), vehicle: saline with Tween-80",4 of 6
same,survivor count,[9],4 of 6
same,survivor count,[10],0 of 6
same,survivor count,[5],0 of 6
ClC1=C(Cl)C(Cl)=C(Cl)C1=Cc1ccccc1,T/C,"dose: 25.0 mg/kg/injection, schedule: Q01DX009 (ip), vehicle: saline with Tween-80",130 % of control
same,T/C,"dose: 50.0 mg/kg/injection, schedule: Q01DX009 (ip), vehicle: saline with Tween-80",131 % of control
same,survivor count,[3],4 of 6 and 5 of 6
same,survivor count,[4],0 of 6
Clc1ccc(/C=N\N=C\c2ccc(Cl)c(Cl)c2)cc1Cl,survivor count,[3],6 of 6
COc1cc(Br)cc(/C=C/[N+](=O)[O-])c1OC,survivor count,[3],1 of 6
same,survivor count,[4],1 of 6
CSc1nc2cc(S(=O)(=O)C(F)F)ccc2s1,survivor count,"dose: 25.0 mg/kg/injection, schedule: Q01DX009 (ip), vehicle: Klucel (hydroxypropylcellulose) (HPC)",6 of 6
COc1cc2c(cc1OC)C(=O)C(Br)CC2 (configuration not stated),survivor count,[4],5 of 6
COc1ccc2oc(-c3ccc(Cl)cc3)c(N3CCN(C)CC3)c2c1,T/C,"dose: 240.0 mg/kg/injection, schedule: Q01DX005 (ip), vehicle: saline",129 % of control
same,survivor count,"dose: 480.0 mg/kg/injection, schedule: Q01DX005 (ip), vehicle: saline",0 of 6
CSC(=S)n1nc(-c2cccs2)c(N=Nc2ccccc2)c1C(F)(F)F,survivor count,[6],3 of 6
same,survivor count,[7],0 of 6
same,survivor count,[8],0 of 6
C(=N\Nc1ccc2ccccc2n1)/c1ccccn1.CC(=O)[O-].CC(=O)[O-].[Zn+2],survivor count,[9],2 of 6
same,survivor count,[10],0 of 6
same,survivor count,[5],0 of 6
[N-]=[N+]=NC(=O)Nc1cccc(C(F)(F)F)c1,survivor count,"dose: 120.0 mg/kg/injection, schedule: Q01DX005 (ip), vehicle: Klucel + Tween-80",4 of 6
same,survivor count,"dose: 240.0 mg/kg/injection, schedule: Q01DX005 (ip), vehicle: Klucel + Tween-80",0 of 6
CCCCCCCCC1(OCCCS(=O)(=O)O)COc2ccccc2OCCOCCOc2ccccc2OC1,survivor count,[7],1 of 6
O=c1c2c([nH]c3c1c1[nH]c4c(c(=O)c1c1[nH]c5c(c(=O)c31)CCCC5)CCCC4)CCCC2,survivor count,[1],6 of 6
same,survivor count,[2],6 of 6
Cc1cc2sccc2cn1,survivor count,[3],4 of 6
C(=Nc1ccc2ccccc2c1)Nc1ccc2ccccc2c1.[Cu+2],T/C,"dose: 50.0 mg/kg/injection, schedule: Q01DX009 (ip), vehicle: saline",132 % of control
same,survivor count,[3],5 of 6
same,survivor count,"dose: 100.0 mg/kg/injection, schedule: Q01DX009 (ip), vehicle: saline",2 of 6
same,survivor count,[4],5 of 6
COC(=O)NC1(NC(=O)OC)NC(=O)c2ccccc2N1,survivor count,"dose: 100.0 mg/kg/injection, schedule: Q01DX005 (ip), vehicle: DMSO",6 of 6
same,survivor count,"dose: 200.0 mg/kg/injection, schedule: Q01DX005 (ip), vehicle: DMSO",6 of 6
